# From the supplement of paper PMC8728848
# The other results are listed elsewhere or left out.
# B1: HFR-3 (Triticum aestivum) (protein)
# chain: MKGLLLCALALAFAAVTTHAQLQSCPTRCGKQADGMECPNNLCCSKDGYCGLGVDYCSAGAGCQSGACYDNKICGAQANGTLCRNNHCCSSGGRCGYGREYCSNGCQGGPCWADLKCGHLDNGKLCPNNLCCSQYGYCGLGPEFCGTGCQNGACSTDKPCGNKANGAPCTNNYCCSQYGSCGLGKDYCGTGCQNGACN
# How the values were obtained:
# Experiment in all cases: glycan array binding signal (z-score within array); higher = stronger binding
# Details in all cases: glycan notation: IUPAC condensed, linker removed
# [1] = target: Gal(b1-4)GlcNAc(b1-3)Gal(b1-4)[Fuc(a1-3)]GlcNAc(b1-3)Gal(b1-4)[Fuc(a1-3)]GlcNAc
# In short: (§1)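 Columns mapping to the same glycan were averaged after glycan names were converted to IUPAC-condensed notation. The data come from 3228 arrays in the Consortium for Functional Glycomics database, limited to those with an available protein sequence. Binding is reported as a within-array Z-score averaged across arrays of one protein sequence and across linkers.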
# [2] = target: Gal(b1-4)GlcNAc(b1-3)GalNAc
# In short: as §1
# [3] = target: Gal(b1-4)GlcNAc(b1-3)[Fuc(a1-3)GlcNAc(b1-6)]Gal(b1-4)Glc
# In short: as §1
# [4] = target: Gal(b1-4)GlcNAc(b1-3)[Gal(b1-4)GlcNAc(b1-6)]Gal(b1-4)GlcNAc
# In short: as §1
# [5] = target: Gal(b1-4)GlcNAc(b1-3)[GlcNAc(b1-6)]Gal(b1-4)GlcNAc
# In short: as §1
# [6] = target: Gal(b1-4)GlcNAc(b1-6)Gal(b1-4)GlcNAc
# In short: as §1
# [7] = target: Gal(b1-4)GlcNAc(b1-6)GalNAc
# In short: as §1
# [8] = target: Gal(b1-4)GlcNAc(b1-6)[Gal(b1-3)]GalNAc
# In short: as §1
# [9] = target: Gal(b1-4)GlcNAc(b1-6)[Gal(b1-4)GlcNAc(b1-3)]GalNAc
# In short: as §1
# [10] = target: Gal(b1-4)GlcNAc6P
# In short: as §1
# [11] = target: Gal(b1-6)Gal
# In short: as §1
# [12] = target: Gal3S(b1-3)GalNAc
# In short: as §1
# [13] = target: Gal3S(b1-3)GlcNAc
# In short: as §1
# [14] = target: Gal3S(b1-3)[Fuc(a1-4)]GlcNAc
# In short: as §1
# [15] = target: Gal3S(b1-4)Glc
# In short: as §1
# [16] = target: Gal3S(b1-4)Glc6S
# In short: as §1
# [17] = target: Gal3S(b1-4)GlcNAc
# In short: as §1
# [18] = target: Gal3S(b1-4)[Fuc(a1-3)]Glc6S
# In short: as §1
# [19] = target: Gal3S(b1-4)[Fuc(a1-3)]GlcNAc
# In short: as §1
# [20] = target: Gal3S(b1-4)[Fuc(a1-3)]GlcNAc6S
# In short: as §1
# [21] = target: Gal3S4S(b1-4)GlcNAc
# In short: as §1
# [22] = target: Gal3S6S(b1-4)GlcNAc
# In short: as §1
# [23] = target: Gal3S6S(b1-4)GlcNAc6S
# In short: as §1
# [24] = target: Gal4S(b1-4)GlcNAc
# In short: as §1
# [25] = target: Gal4S6S(b1-4)GlcNAc
# In short: as §1
# [26] = target: Gal6P(b1-4)GlcNAc
# In short: as §1
# [27] = target: Gal6S(b1-3)GlcNAc
# In short: as §1
# [28] = target: Gal6S(b1-3)GlcNAc6S
# In short: as §1
# [29] = target: Gal6S(b1-4)Glc
# In short: as §1
# [30] = target: Gal6S(b1-4)Glc6S
# In short: as §1
# [31] = target: Gal6S(b1-4)GlcNAc
# In short: as §1
# [32] = target: Gal6S(b1-4)GlcNAc6S
# In short: as §1
# [33] = target: GalNAc(a1-3)Gal
# In short: as §1
# [34] = target: GalNAc(a1-3)GalNAc
# In short: as §1
# [35] = target: GalNAc(a1-3)GalNAc(a1-3)Gal(a1-4)Gal(b1-4)GlcNAc
# In short: as §1
# [36] = target: GalNAc(a1-3)GalNAc(b1-3)Gal(a1-4)Gal(b1-4)Glc
# In short: as §1
# [37] = target: GalNAc(b1-3)Gal
# In short: as §1
# [38] = target: GalNAc(b1-3)Gal(a1-4)Gal(b1-4)GlcNAc
# In short: as §1
# [39] = target: GalNAc(b1-3)Gal(a1-4)Gal(b1-4)GlcNAc(b1-3)Gal(b1-4)Glc
# In short: as §1
# [40] = target: GalNAc(b1-3)Gal(a1-6)Gal(b1-4)Glc
# In short: as §1
# [41] = target: GalNAc(b1-3)GalNAc
# In short: as §1
# [42] = target: GalNAc(b1-3)GlcNAc
# In short: as §1
# [43] = target: GalNAc(b1-4)Gal(b1-4)Glc
# In short: as §1
# [44] = target: GalNAc(b1-4)GlcNAc
# In short: as §1
# [45] = target: GalNAc(b1-4)GlcNAc(b1-2)Man
# In short: as §1
binder,measurement,setting,value
B1,glycan array binding signal (z-score),[1],0.122
same,glycan array binding signal (z-score),[2],0.237
same,glycan array binding signal (z-score),[3],-0.324
same,glycan array binding signal (z-score),[4],-0.232
same,glycan array binding signal (z-score),[5],-0.381
same,glycan array binding signal (z-score),[6],-0.737
same,glycan array binding signal (z-score),[7],-0.958
same,glycan array binding signal (z-score),[8],-1.15
same,glycan array binding signal (z-score),[9],0.231
same,glycan array binding signal (z-score),[10],0.048
same,glycan array binding signal (z-score),[11],-0.638
same,glycan array binding signal (z-score),[12],1.67
same,glycan array binding signal (z-score),[13],-0.244
same,glycan array binding signal (z-score),[14],1.1
same,glycan array binding signal (z-score),[15],1.09
same,glycan array binding signal (z-score),[16],0.048
same,glycan array binding signal (z-score),[17],0.055
same,glycan array binding signal (z-score),[18],6.1
same,glycan array binding signal (z-score),[19],0.308
same,glycan array binding signal (z-score),[20],-0.119
same,glycan array binding signal (z-score),[21],-0.753
same,glycan array binding signal (z-score),[22],0.074
same,glycan array binding signal (z-score),[23],0.39
same,glycan array binding signal (z-score),[24],2.08
same,glycan array binding signal (z-score),[25],0.828
same,glycan array binding signal (z-score),[26],-0.382
same,glycan array binding signal (z-score),[27],-0.088
same,glycan array binding signal (z-score),[28],-1.29
same,glycan array binding signal (z-score),[29],1.54
same,glycan array binding signal (z-score),[30],0.444
same,glycan array binding signal (z-score),[31],-0.491
same,glycan array binding signal (z-score),[32],0.722
same,glycan array binding signal (z-score),[33],-0.819
same,glycan array binding signal (z-score),[34],-0.8
same,glycan array binding signal (z-score),[35],-0.597
same,glycan array binding signal (z-score),[36],-1.65
same,glycan array binding signal (z-score),[37],1.25
same,glycan array binding signal (z-score),[38],1.23
same,glycan array binding signal (z-score),[39],-0.821
same,glycan array binding signal (z-score),[40],-0.624
same,glycan array binding signal (z-score),[41],-1.39
same,glycan array binding signal (z-score),[42],-1.55
same,glycan array binding signal (z-score),[43],1.93
same,glycan array binding signal (z-score),[44],2.48
same,glycan array binding signal (z-score),[45],-0.89

# For reference, some entries already given.
binder,measurement,setting,value
B1,glycan array binding signal (z-score),[17],0.055
same,glycan array binding signal (z-score),[18],6.1
